Assay results reported in EP4778539A1.
No constants are given. Whether binding was seen depends on the method and setting. Some entries that bind do so weakly or less than the wild type.

T1: mouse CAPRIN-1 on the cell membrane surface of mouse cancer cells (mouse) (UniProt Q60865)
T1 sequence (looked up): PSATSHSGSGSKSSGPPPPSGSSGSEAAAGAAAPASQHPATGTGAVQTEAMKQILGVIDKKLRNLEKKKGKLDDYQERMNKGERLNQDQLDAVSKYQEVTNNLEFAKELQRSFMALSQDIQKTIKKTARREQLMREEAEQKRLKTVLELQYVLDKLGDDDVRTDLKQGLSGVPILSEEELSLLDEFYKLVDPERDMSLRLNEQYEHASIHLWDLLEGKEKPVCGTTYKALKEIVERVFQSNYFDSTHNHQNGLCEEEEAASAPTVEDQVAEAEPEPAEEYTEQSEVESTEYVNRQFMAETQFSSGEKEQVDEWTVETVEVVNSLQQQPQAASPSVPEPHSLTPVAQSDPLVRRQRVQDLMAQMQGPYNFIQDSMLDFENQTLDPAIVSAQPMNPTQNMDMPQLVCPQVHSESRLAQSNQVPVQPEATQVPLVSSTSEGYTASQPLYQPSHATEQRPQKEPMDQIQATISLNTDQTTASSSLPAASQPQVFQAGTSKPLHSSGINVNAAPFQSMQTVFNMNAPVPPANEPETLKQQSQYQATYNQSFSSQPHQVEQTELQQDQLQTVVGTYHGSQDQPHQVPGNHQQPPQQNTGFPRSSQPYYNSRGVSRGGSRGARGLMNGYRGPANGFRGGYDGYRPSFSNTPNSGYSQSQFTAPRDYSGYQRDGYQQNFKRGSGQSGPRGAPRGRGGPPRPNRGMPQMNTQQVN

T2: human CAPRIN-1 on the cell membrane surface of human cancer cells (human) (UniProt Q14444)
T2 sequence (looked up): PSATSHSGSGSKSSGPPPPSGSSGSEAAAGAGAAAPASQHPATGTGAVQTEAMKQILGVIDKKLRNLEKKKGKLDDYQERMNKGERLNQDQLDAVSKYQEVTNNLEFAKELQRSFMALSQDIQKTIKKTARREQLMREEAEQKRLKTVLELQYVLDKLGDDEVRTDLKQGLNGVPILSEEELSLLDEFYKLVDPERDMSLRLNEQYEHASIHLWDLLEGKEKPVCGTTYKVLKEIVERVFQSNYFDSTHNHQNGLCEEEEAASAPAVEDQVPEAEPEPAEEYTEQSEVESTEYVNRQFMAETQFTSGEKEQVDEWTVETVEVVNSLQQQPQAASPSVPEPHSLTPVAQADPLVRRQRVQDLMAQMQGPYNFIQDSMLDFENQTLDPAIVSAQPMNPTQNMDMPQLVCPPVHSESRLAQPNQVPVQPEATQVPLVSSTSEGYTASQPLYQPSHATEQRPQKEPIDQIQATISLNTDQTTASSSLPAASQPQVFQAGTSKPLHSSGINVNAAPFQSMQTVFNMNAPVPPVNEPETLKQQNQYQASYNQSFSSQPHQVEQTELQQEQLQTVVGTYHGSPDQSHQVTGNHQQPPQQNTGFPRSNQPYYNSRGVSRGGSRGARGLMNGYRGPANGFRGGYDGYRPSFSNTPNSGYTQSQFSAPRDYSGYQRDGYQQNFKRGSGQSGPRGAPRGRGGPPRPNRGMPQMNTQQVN


Key:
[1] = target: T1, mouse CAPRIN-1 on the cell membrane surface of mouse cancer cells (mouse); assay: flow cytometry, 4T1
[2] = target: T2, human CAPRIN-1 on the cell membrane surface of human cancer cells (human); assay: flow cytometry, HT29
[3] = target: T2, human CAPRIN-1 on the cell membrane surface of human cancer cells (human); assay: flow cytometry, human cancer cells
[4] = target: T1, mouse CAPRIN-1 on the cell membrane surface of mouse cancer cells (mouse); assay: flow cytometry, mouse cancer cells

| binding [1] | binding [2] | binding [3] | binding [4] | Binder |
| --- | --- | --- | --- | --- |
| binds | binds | binds | binds | humanized antibody complex #42 (antibody, human IgG1, V domains shown) VH: AVTLDESGGGLQTPGGALSLVCKASGFTFSGYDMLWVRQAPGKGLEWVAGIGSTGGGTDYGAAVKGRATISRDNGQSTVRLQLNNLRAEDTATYYCAKVAGGCNSGYCRDSPGSIDAWGHGTEVIVS VL: AVTQQPASVSANPGETVKITCSGGGSRNYYGWYQQKSPGSVPVTVIYYDDQRPSNIPSRFSGALSGSTSTLTITGVQADDEAVYFCGSADSNTYEGSFGAGTTLTVL |
| binds | binds | binds | binds | humanized antibody complex #14 (antibody, human IgG1, V domains shown) VH: DAELVKPGASVKISCKASGYTFTDHSIHWVQQKPEQGLEWIGYISPGNGNIKYNEKFKGKATLTADKSSSTAYMQLNSLTSEDSAVYFCKRSLGRGGPYYFDYWGQGTTVTVSS VL: DIVLTQAAPSLPVTPGESVSISCRSSKSLLHSNGNTYLYWFLQRPGQSPQLLIYRMSNLASGVPDRFSGSGSGTAFTLRISRVEAEDVGVYYCMQHREYPVTFGSGPN |
| binds | binds | binds | binds | humanized antibody complex #30 (antibody, human IgG1, V domains shown) VH: GPDLVKPGASVKISCKASGYSFTAYYMHWVKQSHGKSLEWIGRVNPNNGGTTYNQKFKGKAILTVDKSSSTAYMELRSLTFEDSAVYYCARRIYYGYFDYWGQGTTVTVSS VL: AFFAVSLGQRATISCKASQSVDYDGDSYMNWYQQKPGQPPKLLIYVASNLESGVPARFSGSGSGTDFTLNIHPVEEEDAATYYCQQSNEDPYTFGGGTKLEIKQ |
| binds | binds | binds | binds | F(ab')2 complex #72 (protein) VH: EVQLVESGGGLVQPGGSLRLSCAASGFSLSSHSLGWVRQAPGKGLEWIGDIRSGGSAYYANWAKGRFTISRDNSKNTLYLQMNSLRAEDTAVYFCTRTNGPSDLTNRLDLWGQGTLVTVSS VL: EIVLTQSPSSLSASVGDRVTINCQASQSLYNNENLAWFQQKPGKVPKRLIYGASTLASGVSSRFSGSGSGTEFTLTISNLQPEDFATYYCLGEFSCGSADCFAFGGGTKVEIK |
| binds | binds | binds | binds | humanized antibody complex #39 (antibody, human IgG1, V domains shown) VH: EVQLVESGGGLVQPGGSLRLSCAASGFSLSSHSLGWVRQAPGKGLEWIGDIRSGGSAYYANWAKGRFTISRDNSKNTLYLQMNSLRAEDTAVYFCTRTNGPSDLTNRLDLWGQGTLVTVSS VL: EIVLTQSPSSLSASVGDRVTINCQASQSLYNNENLAWFQQKPGKVPKRLIYGASTLASGVSSRFSGSGSGTEFTLTISNLQPEDFATYYCLGEFSCGSADCFAFGGGTKVEIK |
| binds | binds | binds | binds | F(ab')2 complex #73 (protein) VH: EVQLVESGGGLVQPGGSLRLSCAASGFSLSSHSLGWVRQAPGKGLEWIGDIRSGGSAYYANWAKGRFTISRDNSKNTLYLQMNSLRAEDTAVYYCTRTNGPSDLTNRLDLWGQGTLVTVSS VL: EIVLTQSPSSLSASVGDRVTINCQASQSLYNNENLAWFQQKPGKVPKRLIYGASTLASGVSSRFSGSGSGTEFTLTISNLQPEDFATYYCLGEFSCGSADCFAFGGGTKVEIK |
| binds | binds | binds | binds | humanized antibody complex #36 (antibody, human IgG1, V domains shown) VH: EVQLVESGGGLVQPGGSLRLSCAASGFSLSSHSLGWVRQAPGKGLEWIGDIRSGGSAYYANWAKGRFTISRDNSKNTLYLQMNSLRAEDTAVYYCTRTNGPSDLTNRLDLWGQGTLVTVSS VL: QVLTQSPSSLSASVGDRVTINCQASQSLYNNENLAWFQQKPGKVPKRLIYGASTLASGVSSRFSGSGSGTEFTLTISSLQCEDFAIYYCLGEFSCGSADCFAFGGGTKVEIK |
| binds | binds | binds | binds | F(ab')2 complex #74 (protein) VH: EVQLVESGGGLVQPGGSLRLSCAASGFSLSSHSLGWVRQAPGKGLEWIGDIRSGGSAYYANWAKGRFTISRDNSKNTLYLQMNSLRAEDTAVYFCTRTNGPSDLTNRLDLWGQGTLVTVSS VL: EQVLTQSPSSLSASVGDRVTINCQASQSLYNNENLAWFQQKPGKVPKRLIYGASTLASGVSSRFSGSGSGTEFTLTISNLQPEDFAIYYCLGEFSCGSADCFAFGGGTKVEIK |
| binds | binds | binds | binds | humanized antibody complex #38 (antibody, human IgG1, V domains shown) VH: EVQLVESGGGLVQPGGSLRLSCAASGFSLSSHSLGWVRQAPGKGLEWIGDIRSGGSAYYANWAKGRFTISRDNSKNTLYLQMNSLRAEDTAVYYCTRTNGPSDLTNRLDLWGQGTLVTVSS VL: EQVLTQSPSSLSASVGDRVTINCQASQSLYNNENLAWFQQKPGKVPKRLIYGASTLASGVSSRFSGSGSGTEFTLTISNLQPEDFAIYYCLGEFSCGSADCFAFGGGTKVEIK |
| binds | binds | binds | binds | humanized antibody complex #40 (antibody, human IgG1, V domains shown) VH: EVQLVESGGGLVQPGGSLRLSCAASGFSLSSHSLGWVRQAPGKGLEWIGDIRSGGSAYYANWAKGRFTISRDNSKNTLYLQMNSLRAEDTAVYYCTRTNGPSDLTNRLDLWGQGTLVTVSS VL: EIVLTQSPSSLSASVGDRVTINCQASQSLYNNENLAWFQQKPGKVPKRLIYGASTLASGVSSRFSGSGSGTEFTLTISNLQPEDFATYYCLGEFSCGSADCFAFGGGTKVEIK |
| binds | binds | binds | binds | humanized antibody complex #41 (antibody, human IgG1, V domains shown) VH: EVQLVESGGGLVQPGGSLRLSCAASGFSLSSHSLGWVRQAPGKGLEWIGDIRSGGSAYYANWAKGRFTISRDNSKNTLYLQMNSLRAEDTAVYFCTRTNGPSDLTNRLDLWGQGTLVTVSS VL: EQVLTQSPSSLSASVGDRVTINCQASQSLYNNENLAWFQQKPGKVPKRLIYGASTLASGVSSRFSGSGSGTEFTLTISNLQPEDFAIYYCLGEFSCGSADCFAFGGGTKVEIK |
| binds | binds | binds | binds | humanized antibody complex #37 (antibody, human IgG1, V domains shown) VH: EVQLVESGGGLVQPGGSLRLSCAASGFSLSSHSLGWVRQAPGKGLEWIGDIRSGGSAYYANWAKGRFTISRDNSKNTLYLQMNSLRAEDTAVYFCTRTNGPSDLTNRLDLWGQGTLVTVSS VL: QVLTQSPSSLSASVGDRVTINCQASQSLYNNENLAWFQQKPGKVPKRLIYGASTLASGVSSRFSGSGSGTEFTLTISSLQCEDFAIYYCLGEFSCGSADCFAFGGGTKVEIK |
| binds | binds | binds | binds | humanized antibody complex #13 (antibody, human IgG1, V domains shown) VH: GAELVRSGASVKMSCKASGYSFTDYNMYWVKQTPGQGLEWIGYIYPGNGGTNYNQKFKGKATLTADTSSSTAYMQISSLTSEDSAVYFCARDYDDGGYAMDYWGQGTTVTVSS VL: DIQMTQSPASLSASVGETVTITCRASGNIHNYLTWYQQKQGKSPQLLVYNAKTLADGVPSRFSGSGSGTQYSLKINRLQPEDFGSYYCQHFWNIPWTFGGGTKLNSR |
| binds | binds | binds | binds | humanized antibody complex #46 (antibody, human IgG1, V domains shown) VH: GAELVRSGASVKMSCKASGYSFTDYNMYWVKQTPGQGLEWIGYIYPGNGGTNYNQKFKGKATLTADTSSSTAYMQISSLTSEDSAVYFCARDYDDGGYAMDYWGQGTTVTVSS VL: DIQMTQSPASLSASVGETVTITCRASGNIHNYLTWYQQKQGKSPQLLVYNAKTLADGVPSRFSGSGSGTQYSLKINRLQPEDFGSYYCQHFWNIPWTFGGGTKLNSR |
